Experimental data taken from paper PMC10952301 (Angewandte Chemie (International Ed. in English), 2023).

Test: general procedure: Fmoc solid-phase peptide synthesis; Tentagel resin, pre-loaded with lysine
Conditions: whole synthesis, scale 50 µmol; for isolated yield: on 25 µmol (half of crude)

| Substance | isolated yield | isolated mass |
| --- | --- | --- |
| N(τ)-α-ADPr-His: TF[H]ADPrGAGLVVPVDK | 35% | 16.2 mg |
| N(τ)-β-ADPr-His: TF[H]ADPrGAGLVVPVDK | 28% | 13.0 mg |
| N(π)-α-ADPr-His: TF[H]ADPrGAGLVVPVDK | 28% | 12.9 mg |
